Reference: patent US9271500B2, “Fused heterocyclic compound” (Sumitomo Chemical Company, Limited, priority 2012, dated 2016)
Some entries share one result that the patent states for a list of compounds. At least one compound was matched to its structure with a doubt left.

Legend:
Format in all cases: in vivo
[1] = system: Adoxophyes orana fasciata; assay: Test Example 7: spray on apple tree, Adoxophyes orana fasciata larvae released; conditions: 500 ppm, sprayed 20 mL/cup on apple tree, first-instar larvae, after 7 days
Plutella xylostella = assay: Test Example 6: spray on cabbage, Plutella xylostella larvae released; conditions: 500 ppm, sprayed 20 mL/cup on cabbage, second instar larvae, after 5 days
Culex pipiens pallens = assay: Test Example 10: Culex pipiens pallens larvae in treated water; conditions: active ingredient concentration 3.5 ppm in water, last-instar larvae, one day after

For CCS(=O)(=O)c1ccccc1-n1nc2cc(C(F)(F)F)ccc2c1Cl [compound 3], the death rate [1] was at least 90%.
CCS(=O)(=O)c1ccccc1-c1cn2cc(C(F)(F)F)ccc2n1 [compound 5] showed a death rate [1] of at least 90%.
In the case of CCS(=O)(=O)c1cc(C(F)(F)F)ccc1-c1cn2cc(C(F)(F)F)ccc2n1 [compound 7], the death rate (Plutella xylostella) was at least 80%, the death rate [1] was at least 90% and the death rate (Culex pipiens pallens) was at least 91%.
